The supplement of paper PMC4604168 (melanoma cell lines)
Some of the results follow. Repeats are few or missing, and single values can be far off.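 Imaging used 1,536-well plates; nuclei positive for cleaved PARP by antibody were divided by total DNA-stained nuclei to yield the apoptosis fraction. Doses for screening kept most cells viable, and cell lines differ markedly in resting and induced cleaved-PARP levels.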

What was measured:
Experiment in all cases: cleaved PARP positive nuclei fraction relative to DMSO control; melanoma cells; higher = more apoptosis
Settings in all cases: library dose: low library concentration; 72 h
501Mel = tested on: 501Mel
A101D = tested on: A101D
A2058 = tested on: A2058
A375 = tested on: A375
C32 = tested on: C32
CBRC008 = tested on: CBRC008 (line from a melanoma biopsy)
CBRC014 = tested on: CBRC014 (line from a melanoma biopsy)
CBRC016 = tested on: CBRC016 (line from a melanoma biopsy)
CBRC017 = tested on: CBRC017 (line from a melanoma biopsy)

SMILES | cleaved PARP positive nuclei fraction (501Mel) [%] | cleaved PARP positive nuclei fraction (A101D) [%] | cleaved PARP positive nuclei fraction (A2058) [%] | cleaved PARP positive nuclei fraction (A375) [%] | cleaved PARP positive nuclei fraction (C32) [%] | cleaved PARP positive nuclei fraction (CBRC008) [%] | cleaved PARP positive nuclei fraction (CBRC014) [%] | cleaved PARP positive nuclei fraction (CBRC016) [%] | cleaved PARP positive nuclei fraction (CBRC017) [%]
NC1(c2ccc(-c3nc4ccn5c(=O)[nH]nc5c4cc3-c3ccccc3)cc2)CCC1 + O=C(O)c1ccc2c(c1)nc(Nc1cccc(Cl)c1)c1ccncc12 [CX4945] (first compound 0.4 µM, partner dose 0.4 µM) | 67.7 | 44.2 | 168 | 146 | 83.2 | 225 | 87.7 | 229 | 136
CC1(C)CCC(c2ccc(Cl)cc2)=C(CN2CCN(c3ccc(C(=O)NS(=O)(=O)c4ccc(N[C@H](CCN5CCOCC5)CSc5ccccc5)c(S(=O)(=O)C(F)(F)F)c4)cc3)CC2)C1 + NC1(c2ccc(-c3nc4ccn5c(=O)[nH]nc5c4cc3-c3ccccc3)cc2)CCC1 [MK2206] (first compound 0.4 µM, partner dose 0.4 µM) | 149 | 237 | 162 | 838 | 147 | 644 | 670 | 428 | 382
CS(=O)(=O)c1ccc(C(=O)Nc2ccc(Cl)c(-c3ccccn3)c2)c(Cl)c1 [vismodegib] + Nc1ncn([C@H]2C[C@H](O)[C@@H](CO)O2)c(=O)n1 [decitabine] (first compound 1 µM, partner dose 0.1 µM) | 83 | 188 | 57.1 | 100 | 143 | 162 | 98.4 | 148 | 86.3
C[C@@H](N)c1ccc(C(=O)Nc2ccnc3[nH]ccc23)cc1 + Cn1c(Nc2ccc(C(F)(F)F)cc2)nc2cc(Oc3ccnc(-c4ncc(C(F)(F)F)[nH]4)c3)ccc21 [CHIR265] (first compound 0.4 µM, partner dose 0.08 µM) | 1790 | 278 | 102 | 232 | 51.1 | 101 | 267 | 138 | 116
NC(=O)c1ccc(N(C(N)=O)c2c(F)cccc2F)nc1-c1ccc(F)cc1F + C[C@@H](Oc1cc(-c2cnn(C3CCNCC3)c2)cnc1N)c1c(Cl)ccc(F)c1Cl [Crizotinib] (first compound 0.4 µM, partner dose 0.2 µM) | 152 | 175 | 188 | 176 | 84.5 | 77.4 | 84.8 | 99.7 | 96.7
CCCCCCCCc1ccc(CCC(N)(CO)CO)cc1 [fingolimod] + Cn1c(=O)n(-c2ccc(C(C)(C)C#N)cc2)c2c3cc(-c4cnc5ccccc5c4)ccc3ncc21 [NVP-BEZ235] (first compound 2 µM, partner dose 0.004 µM) | 174 | 81.8 | 57.5 | 585 | 95 | 39.4 | 178 | 62.2 | 107
Cn1cnc2c(F)c(Nc3ccc(Br)cc3Cl)c(C(=O)NOCCO)cc21 [selumetinib] + CC(=O)c1c(C)c2cnc(Nc3ccc(N4CCNCC4)cn3)nc2n(C2CCCC2)c1=O [palbociclib] (first compound 0.015 µM, partner dose 0.04 µM) | 1540 | 128 | 106 | 252 | 186 | 44.7 | 106 | 37.4 | 185
Cn1cnc2c(F)c(Nc3ccc(Br)cc3Cl)c(C(=O)NOCCO)cc21 [selumetinib] + CO[C@H]1C[C@@H]2CC[C@@H](C)[C@@](O)(O2)C(=O)C(=O)N2CCCC[C@H]2C(=O)O[C@H]([C@H](C)C[C@@H]2CC[C@@H](OCCO)[C@H](OC)C2)CC(=O)[C@H](C)/C=C(\C)[C@@H](O)[C@@H](OC)C(=O)[C@H](C)C[C@H](C)/C=C/C=C/C=C/1C [everolimus] (first compound 0.015 µM, partner dose 0.02 µM) | 10300 | 42.6 | 149 | 1050 | 87.1 | 191 | 82.3 | 118 | 162
CC1(C)CCC(c2ccc(Cl)cc2)=C(CN2CCN(c3ccc(C(=O)NS(=O)(=O)c4ccc(N[C@H](CCN5CCOCC5)CSc5ccccc5)c(S(=O)(=O)C(F)(F)F)c4)cc3)CC2)C1 + Cc1cn(-c2cc(NC(=O)c3ccc(C)c(Nc4nccc(-c5cccnc5)n4)c3)cc(C(F)(F)F)c2)cn1 [nilotinib] (first compound 0.4 µM, partner dose 0.2 µM) | 193 | 87.5 | 263 | 316 | 283 | 1370 | 449 | 666 | 277
CS(=O)(=O)c1ccc(C(=O)Nc2ccc(Cl)c(-c3ccccn3)c2)c(Cl)c1 [vismodegib] + C=C(c1ccc(C(=O)O)cc1)c1cc2c(cc1C)C(C)(C)CCC2(C)C [Bexarotene] (first compound 1 µM, partner dose 2 µM) | 109 | 116 | 123 | 51.5 | 125 | 73.3 | 84.7 | 146 | 125
NC(=O)c1ccc(N(C(N)=O)c2c(F)cccc2F)nc1-c1ccc(F)cc1F + Cn1c(Nc2ccc(C(F)(F)F)cc2)nc2cc(Oc3ccnc(-c4ncc(C(F)(F)F)[nH]4)c3)ccc21 [CHIR265] (first compound 0.4 µM, partner dose 0.08 µM) | 74.3 | 126 | 93.1 | 149 | 177 | 31.3 | 204 | 136 | 89.6
Cn1sc(=O)n(Cc2ccccc2)c1=O + Cc1nc(Nc2ncc(C(=O)Nc3c(C)cccc3Cl)s2)cc(N2CCN(CCO)CC2)n1 [dasatanib] (first compound 0.4 µM, partner dose 0.004 µM) | 63.9 | 102 | 87.6 | 129 | 91.9 | 45.3 | 93.5 | 116 | 82.2
Cn1sc(=O)n(Cc2ccccc2)c1=O + CCCCCCCCc1ccc(CCC(N)(CO)CO)cc1 [fingolimod] (first compound 0.4 µM, partner dose 2 µM) | 93.8 | 21.1 | 74.2 | 500 | 260 | 54.1 | 84.3 | 28.3 | 103
Cn1cnc2c(F)c(Nc3ccc(Br)cc3Cl)c(C(=O)NOCCO)cc21 [selumetinib] + Nc1cccc2c1CN(C1CCC(=O)NC1=O)C2=O [lenalidomide] (first compound 0.015 µM, partner dose 1 µM) | 3190 | 79.3 | 93.6 | 264 | 84.9 | 80.8 | 69.2 | 59.4 | 140
CN(c1ncccc1CNc1nc(Nc2ccc3c(c2)CC(=O)N3)ncc1C(F)(F)F)S(C)(=O)=O + O=C(O)[C@@H]1[O][Sb](=[O])([O][Sb]2(=[O])[O][C@H]([C@H](O)CO)[C@H](O)[C@H](C(=O)O)[O]2)[O][C@H]([C@H](O)CO)[C@@H]1O [stibogluconate] (first compound 0.08 µM, partner dose 2 µM) | 78.7 | 63.9 | 211 | 184 | 75.7 | 72 | 109 | 23.3 | 86.7
NC(=O)c1ccc(N(C(N)=O)c2c(F)cccc2F)nc1-c1ccc(F)cc1F + CCCS(=O)(=O)Nc1ccc(F)c(C(=O)c2c[nH]c3ncc(Cl)cc23)c1F [PLX4720] (first compound 0.4 µM, partner dose 0.08 µM) | 54.8 | 146 | 144 | 207 | 78.8 | 35.1 | 105 | 60.4 | 122
C[C@]1(O)C[C@@H](c2nc(-c3ccc4ccc(-c5ccccc5)nc4c3)c3c(N)nccn32)C1 + CCCS(=O)(=O)Nc1ccc(F)c(C(=O)c2c[nH]c3ncc(Cl)cc23)c1F [PLX4720] (first compound 0.4 µM, partner dose 0.08 µM) | 190 | 143 | 122 | 480 | 362 | 288 | 120 | 82.6 | 131
CC1(C)CCC(c2ccc(Cl)cc2)=C(CN2CCN(c3ccc(C(=O)NS(=O)(=O)c4ccc(N[C@H](CCN5CCOCC5)CSc5ccccc5)c(S(=O)(=O)C(F)(F)F)c4)cc3)CC2)C1 + Cn1c(=O)n(-c2ccc(C(C)(C)C#N)cc2)c2c3cc(-c4cnc5ccccc5c4)ccc3ncc21 [NVP-BEZ235] (first compound 0.4 µM, partner dose 0.004 µM) | 110 | 602 | 192 | 102 | 96.3 | 922 | 553 | 427 | 357
Cn1sc(=O)n(Cc2ccccc2)c1=O + CCN(CC)CCNC(=O)c1c(C)[nH]c(/C=C2\C(=O)Nc3ccc(F)cc32)c1C [sunitinib] (first compound 0.4 µM, partner dose 0.4 µM) | 74.4 | 93.2 | 162 | 225 | 24.9 | 45.3 | 81.1 | 45.4 | 77.5
CC(=O)O[C@@]12CO[C@@H]1C[C@H](O)[C@@]1(C)C(=O)[C@H](O)C3=C(C)[C@@H](OC(=O)[C@H](O)[C@@H](NC(=O)OC(C)(C)C)c4ccccc4)C[C@@](O)([C@@H](OC(=O)c4ccccc4)[C@H]21)C3(C)C [Docetaxel] + CN(c1ncccc1CNc1nc(Nc2ccc3c(c2)CC(=O)N3)ncc1C(F)(F)F)S(C)(=O)=O [PF562271] (first compound 0.0001 µM, partner dose 0.08 µM) | 293 | 224 | 2380 | 4690 | 147 | 170 | 176 | 280 | 186
CN(c1ncccc1CNc1nc(Nc2ccc3c(c2)CC(=O)N3)ncc1C(F)(F)F)S(C)(=O)=O + O=C(O)c1ccc2c(c1)nc(Nc1cccc(Cl)c1)c1ccncc12 [CX4945] (first compound 0.08 µM, partner dose 0.4 µM) | 143 | 377 | 160 | 149 | 149 | 30 | 104 | 92.6 | 113

In a second layout: entries from further up
SMILES,cleaved PARP positive nuclei fraction (501Mel) [%],cleaved PARP positive nuclei fraction (A101D) [%],cleaved PARP positive nuclei fraction (A2058) [%],cleaved PARP positive nuclei fraction (A375) [%],cleaved PARP positive nuclei fraction (C32) [%],cleaved PARP positive nuclei fraction (CBRC008) [%],cleaved PARP positive nuclei fraction (CBRC014) [%],cleaved PARP positive nuclei fraction (CBRC016) [%],cleaved PARP positive nuclei fraction (CBRC017) [%]
"CN(c1ncccc1CNc1nc(Nc2ccc3c(c2)CC(=O)N3)ncc1C(F)(F)F)S(C)(=O)=O + O=C(O)[C@@H]1[O][Sb](=[O])([O][Sb]2(=[O])[O][C@H]([C@H](O)CO)[C@H](O)[C@H](C(=O)O)[O]2)[O][C@H]([C@H](O)CO)[C@@H]1O [stibogluconate] (first compound 0.08 µM, partner dose 2 µM)",78.7,63.9,211,184,75.7,72,109,23.3,86.7
"NC(=O)c1ccc(N(C(N)=O)c2c(F)cccc2F)nc1-c1ccc(F)cc1F + CCCS(=O)(=O)Nc1ccc(F)c(C(=O)c2c[nH]c3ncc(Cl)cc23)c1F [PLX4720] (first compound 0.4 µM, partner dose 0.08 µM)",54.8,146,144,207,78.8,35.1,105,60.4,122
